From ChEMBL document CHEMBL3988442, “University of Dundee, Small-Polar-MMV Screening Library” (2021).

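Viability assay of Plasmodium falciparum sporozoites; the read-out is not stated. The concentration is filed as 10 mM, unlikely as a test dose, so the dose is not known. Higher reads as lower viability (inferred: compounds with an IC50 in retests scored well above the rest). Strong results were mostly tested again. About 34,000 compounds were tested under these conditions; 0.84% (about 280) showed 50% or more at least once.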

Values are the deposited “Percent Effect”, in %.
The record does not define 0% and 100%; most values in the screen are far below 50% and negative numbers occur (in some assays of this library far below -100).
This is an unselected part of the compounds tested.
Two or more numbers in one place are separate tests of the same structure; such repeats can differ widely.

| SMILES | Percent Effect |
|---|---|
| `Cc1nc(C(=O)N2CCCC2c2noc(C3CC3)n2)c[nH]1` (centres undefined) | -6.572% |
| `O=C(O)C(F)(F)F.O=C(O)C(F)(F)F.O=C(O)C(F)(F)F.[H][C@@]12COC[C@]1(COCc1ccncc1)CN(Cc1ccccn1)C2` | 1.308% |
| `O=C(c1cnn[nH]1)N(CCCO)Cc1cccnc1` | 2.807% |
| `CN(CC1CCCCC1)C(=O)c1ccc(-n2ncc(C#N)c2N)cc1` | 5.156% |
| `CC[C@@]1(O)CCN(C(=O)c2ccc(SC)cc2)C[C@H]1O` | -25.98% |
| `CN(C)S(=O)(=O)N1CCC(c2cccc(Cc3ccccc3Cl)n2)CC1` | 6.527% |
| `CC(C)CN1CCCC2(CCN(C(=O)c3cnccn3)C2)C1` (centres undefined) | -10.17% |
| `Cn1nc(C2CCCN(C(=O)Cc3ccsc3)C2)c2nccnc21` (centres undefined) | -9.597% |
| `O=C(O)C(F)(F)F.[H][C@@]12CCN(CCc3ccccc3)C[C@@]1([H])O[C@@H](C(=O)NCC1CC1)C2` | -4.08% |
| `Cc1cncc(CN2C[C@@H](O)[C@H](Oc3ccccc3)C2)c1` | 5.73% |
| `O=C(c1ccnnc1)N1CCc2ncnc(C3CCOC3)c2CC1` (centres undefined) | 1.128% |
| `O=C(COc1ccccc1)N1C[C@@H](O)[C@H](N2CCCC2)C1.O=CO` | -11.26% |
| `Cc1cc(C)nc(N2CCC(C(=O)Nc3ccc(C(C)C)cc3)CC2)n1` | 3.069% |
| `COCCN(C)CCN1CC2(CCN(C3CCOCC3)CC2)OC1=O` | -1.667% |
| `Cc1nc(C)n(CCC(=O)NCC2CCCOC2)n1` (centres undefined) | 6.545% |
| `[H][C@@]12CCN(C(=O)Cc3cccc(F)c3)C[C@@]1([H])O[C@H](c1noc(C)n1)C2` | -9.246% |
| `CN(C)C(=O)CN1CCCC1c1nc(N)ncc1-c1ccc(F)cc1` (centres undefined) | -6.829% |
| `COCCN1CCC2(CCCN(c3ncccn3)C2)C1.O=C(O)C(F)(F)F` (centres undefined) | -16.26% |
| `Cc1cnn(C2CCCN(C(=O)c3cc4nc(C)ccc4o3)C2)c1` (centres undefined) | 10.26% |
| `CNc1ncc(CN2CCC(c3nnsc3S(C)(=O)=O)CC2)cn1` | 2.865% |
| `c1ccc(Cc2nc(C3CC3)nn2-c2ccc3c(c2)OCCO3)nc1` | 32.69% & 40.6% |
| `Cc1cccc(C(=O)N2C[C@@H](C)[C@@]3(CCN(c4ccsc4)C3=O)C2)n1.O=C(O)C(F)(F)F` | 9.88% |
| `Cc1ccc(CN2CCC3(CC2)C(=O)N(CC(C)C)CCN3C)s1.O=C(O)C(F)(F)F.O=C(O)C(F)(F)F` | 11.01% |
| `CCN(c1ccc(C(=O)NCCCN2CCCC2)cc1)S(=O)(=O)CC` | -11.84% |
| `COc1ccc(F)c(CN(CCCn2ccnc2)Cc2ccc(C)s2)c1.O=C(O)CC(O)(CC(=O)O)C(=O)O` | 11.64% |
| `O=C(O)c1cc2c(nc1O)CC(c1cccs1)CC2=O` (centres undefined) | 12.06% |
| `Cc1cnn(C2CCCN(C(=O)c3ccnc(-n4ccnc4)c3)C2)c1` (centres undefined) | -9.547% |
| `Cc1nonc1N1CCN(Cc2nc(CC3CC3)no2)CC1` | -15.01% |
| `CCN(C1CCN(C(=O)c2cccc(Cl)c2)CC1)S(C)(=O)=O` | -11.53% |
| `O=C(Nc1cc(C2CCOCC2)[nH]n1)c1cc[nH]n1` | -6.094% |
| `CCN1CCC(NC(=O)CNC(C)Cn2cccn2)CC1` (centres undefined) | 3.441% |
| `CCc1noc(CN(CC)Cc2cc3ccc(C)cc3[nH]c2=O)n1` | -13.38% |
| `Cc1nn(CC(=O)N2CCN(c3ncccn3)CC2)c(C)c1Cl` | 1.171% |
| `CC1(C)COCCN1C(=O)CCc1nc(-c2ccncc2)no1` | 16.14% |
| `CCCC(=O)N1CCc2c(CNS(C)(=O)=O)cncc2C1.Cl` | 16.36% |
| `O=C(c1ccc[nH]1)N1CCC(c2nccn2Cc2ccncc2)CC1` | -12.63% |
| `Cc1cc(C)n(CC2CCCN2C(=O)c2cccnc2N(C)C)n1` (centres undefined) | -0.09724% |
| `CN1CCC/C1=N\S(=O)(=O)c1ccc(NC(=O)c2ccsc2)cc1` | 18.84% |
| `Cc1ccc2nc(CN(Cc3ccc(C)o3)C(C)C)cc(=O)n2c1` | 1.443% |
| `COc1cc(Cl)ccc1C(=O)NCc1nncn1C` | -149% |
| `O=C(O)C(F)(F)F.[H][C@@]12CCN(c3ccncn3)[C@]1([H])CC[C@@H](C(=O)N1CCCCO1)O2` | 4.679% |
| `Cc1cc(NC(=O)CN2CCCCC2Cn2nc(C)nc2C)on1` (centres undefined) | -0.6284% |
| `c1ccc(-n2cc(CNCC3CCCN3c3cccnn3)cn2)cc1` (centres undefined) | -8.707% |
| `NC(=O)C1CCN(CCc2ccc(NC(=O)C3CCC3)cc2)CC1` | -4.929% |
| `O=C(NCc1cccc(F)c1)NC1CCCN(c2ncccn2)C1` (centres undefined) | 1.384% |
| `CC(Cc1ccc(Cl)cc1)NC(=O)Nc1cnn(CC(N)=O)c1` (centres undefined) | 3.028% |
| `Cc1c[nH]nc1C1CCCN1Cc1ccncc1` (centres undefined) | -7.046% |
| `COc1cccc2c(C)c(C(=O)N3CCNCC3C(N)=O)[nH]c12.Cl` (centres undefined) | 5.513% & 6.173% & 11.86% |
| `Cn1cnnc1C1CCN(C(=O)CCCOc2ccccc2)CC1` | 36.27% & 14.02% & 4.89% |
| `COc1ccccc1NC(=O)NCc1cn[nH]c1` | 2.109% |
| `CC(C)(C)c1nnc(CN2CCCC(c3cc(C(N)=O)[nH]n3)C2)o1` (centres undefined) | 14.88% |
| `O=C(CCc1ccc(Cl)s1)NCc1nnc2n1CCCCC2` | 4.578% |
| `O=C(Nc1ccncc1)N(CCO)Cc1ccsc1` | 8.838% |
| `CCn1cc(CN2CCCN(C(=O)c3sc(C)nc3C)CC2)cn1` | 11.01% |
| `CC(NC(=O)NCCc1ccc(Cl)s1)c1ccccn1` (centres undefined) | 6.28% |
| `Cc1ccc2c(c1)CN(C(=O)c1ccccc1F)C(CN(C)C)CO2.Cl` (centres undefined) | -8.175% |
| `CCn1c(C2CCCN(Cc3nccn3CCOC)C2)nn(C)c1=O` (centres undefined) | -12.23% |
| `COC(=O)c1ccc(NC(=O)CCNCc2ccco2)cc1` | -8.564% |
| `O=C(O)C(F)(F)F.O=C(O)C(F)(F)F.[H][C@@]12CCCO[C@]1([H])[C@H](N(C)Cc1cccnc1)CN2C(=O)c1ccno1` | 6.078% |

Repeated from the top, 6 entries:

SMILES	Percent Effect
Cc1nc(C(=O)N2CCCC2c2noc(C3CC3)n2)c[nH]1 (centres undefined)	-6.572%
O=C(O)C(F)(F)F.O=C(O)C(F)(F)F.O=C(O)C(F)(F)F.[H][C@@]12COC[C@]1(COCc1ccncc1)CN(Cc1ccccn1)C2	1.308%
O=C(c1cnn[nH]1)N(CCCO)Cc1cccnc1	2.807%
CN(CC1CCCCC1)C(=O)c1ccc(-n2ncc(C#N)c2N)cc1	5.156%
CC[C@@]1(O)CCN(C(=O)c2ccc(SC)cc2)C[C@H]1O	-25.98%
CN(C)S(=O)(=O)N1CCC(c2cccc(Cc3ccccc3Cl)n2)CC1	6.527%